From paper PMC2843633
No constants are given. Whether binding was seen depends on the method and setting. Where a sequence is shown, tags or fusion partners need not be part of it.

Molecular target: 5′Nuc/SUMO fusion protein (Glossina morsitans morsitans 5′nucleotidase-related protein, recombinant, refolded) (Glossina morsitans morsitans) (UniProt Q95P65)
Test: SEC; Superdex 200 gel filtration of refolded, concentrated 5′Nuc/SUMO in 1 mM piperazin pH 9.5, 100 mM NaCl; monomer separated from aggregates and impurities; both purified

B1: 5′Nuc/SUMO fusion protein (Glossina morsitans morsitans 5′nucleotidase-related protein, recombinant, refolded) (enzyme, UniProt Q95P65 26-555)
chain: DDLYPLTIMHTNDFHARFEETNVKGNPCKSGEKCIGGLARVLHTIKKIIKEQEKKNIESLYINAGDNFQGTIWYNIGRWNVTSELMNIQPPDVMVLGNHEFDHGIDGLLPFLNNMDKTEIVVANMDARDEPQVAKKIKPFTIIKKKYRNIGVIGVVVEEVPDLANTGKLKFRNESEAILEAARNLKKEDPSVNIIIVVSHVGFDVDKIIAERTGSEVDIIVGGHSHTVLYTGTPPGPEKPEDNYPYVYNHPSGNKVLVVQAVCHAKYVGNLTVFFDKKGKVVTYEGAPIYMDTKVEQDKDVLEAMKPWRKLIDEKTKLVVGRTNVDLPRDICRSEECALGNLYTDSMIYAFGGKENCKSGSTWTTAPIAFVHAGAMRSSLHQGDILYSDALLLSPFTNMVVAYDLPGAQLKAALEFSAAPKNEDEKRRFLQMSGLKVTYNMSRAANNRIVDLKVRTNVCPYDQYENLDEKKTYRVVSPSFLQGGGDGFKMLRDYAKNIQNQKIDLDALVDYLKKFSPLAPKAEGRITIIH
For B1, the binding was “no binding”.
